The supplement of paper PMC10849652
The other results are listed elsewhere or left out. Residues, ends and D or L forms follow the SMILES beside them. *: point of attachment. Cbz = O=C(OCc1ccccc1)*

Protein sequences, listed by entry. Tags and fused reporters are not part of them. Lines headed by an entry give the natural chain unless they say otherwise; changes in a name come on top.
UniProt Q02818: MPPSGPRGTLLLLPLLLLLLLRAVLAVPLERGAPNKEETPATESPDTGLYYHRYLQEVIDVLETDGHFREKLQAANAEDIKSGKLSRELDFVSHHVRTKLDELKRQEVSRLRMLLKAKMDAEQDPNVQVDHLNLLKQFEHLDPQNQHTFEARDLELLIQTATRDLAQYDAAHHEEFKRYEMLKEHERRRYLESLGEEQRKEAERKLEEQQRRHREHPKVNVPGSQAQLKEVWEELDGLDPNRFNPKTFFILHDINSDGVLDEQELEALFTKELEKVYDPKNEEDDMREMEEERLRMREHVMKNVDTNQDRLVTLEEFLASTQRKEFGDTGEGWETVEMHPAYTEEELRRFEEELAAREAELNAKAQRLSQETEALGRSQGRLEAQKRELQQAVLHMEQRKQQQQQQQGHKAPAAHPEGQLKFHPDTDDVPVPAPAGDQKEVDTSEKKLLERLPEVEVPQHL
UniProt Q9NV35: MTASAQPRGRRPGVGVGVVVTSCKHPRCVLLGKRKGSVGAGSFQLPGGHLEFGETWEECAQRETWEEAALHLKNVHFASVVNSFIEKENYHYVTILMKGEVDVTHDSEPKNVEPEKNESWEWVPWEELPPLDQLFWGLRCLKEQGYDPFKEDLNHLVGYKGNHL
UniProt Q9Y266: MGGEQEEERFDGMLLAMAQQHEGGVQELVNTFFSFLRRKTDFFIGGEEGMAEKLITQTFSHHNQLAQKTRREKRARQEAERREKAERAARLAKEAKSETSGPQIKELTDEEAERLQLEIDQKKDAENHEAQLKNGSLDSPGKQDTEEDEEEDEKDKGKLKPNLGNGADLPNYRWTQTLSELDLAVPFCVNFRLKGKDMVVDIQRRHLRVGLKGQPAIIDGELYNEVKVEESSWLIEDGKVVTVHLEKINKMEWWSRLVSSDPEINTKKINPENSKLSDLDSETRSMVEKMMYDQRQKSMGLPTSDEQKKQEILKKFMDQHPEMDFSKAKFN
UniProt Q8TB37: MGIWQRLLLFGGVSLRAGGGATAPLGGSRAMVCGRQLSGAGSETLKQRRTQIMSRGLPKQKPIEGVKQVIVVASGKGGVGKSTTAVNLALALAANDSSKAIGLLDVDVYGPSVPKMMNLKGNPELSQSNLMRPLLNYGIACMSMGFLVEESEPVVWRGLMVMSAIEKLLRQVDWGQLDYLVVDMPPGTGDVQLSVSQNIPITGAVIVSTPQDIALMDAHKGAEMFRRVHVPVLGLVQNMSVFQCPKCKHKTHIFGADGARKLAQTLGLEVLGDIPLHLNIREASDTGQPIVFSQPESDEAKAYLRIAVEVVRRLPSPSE
UniProt Q96SU4: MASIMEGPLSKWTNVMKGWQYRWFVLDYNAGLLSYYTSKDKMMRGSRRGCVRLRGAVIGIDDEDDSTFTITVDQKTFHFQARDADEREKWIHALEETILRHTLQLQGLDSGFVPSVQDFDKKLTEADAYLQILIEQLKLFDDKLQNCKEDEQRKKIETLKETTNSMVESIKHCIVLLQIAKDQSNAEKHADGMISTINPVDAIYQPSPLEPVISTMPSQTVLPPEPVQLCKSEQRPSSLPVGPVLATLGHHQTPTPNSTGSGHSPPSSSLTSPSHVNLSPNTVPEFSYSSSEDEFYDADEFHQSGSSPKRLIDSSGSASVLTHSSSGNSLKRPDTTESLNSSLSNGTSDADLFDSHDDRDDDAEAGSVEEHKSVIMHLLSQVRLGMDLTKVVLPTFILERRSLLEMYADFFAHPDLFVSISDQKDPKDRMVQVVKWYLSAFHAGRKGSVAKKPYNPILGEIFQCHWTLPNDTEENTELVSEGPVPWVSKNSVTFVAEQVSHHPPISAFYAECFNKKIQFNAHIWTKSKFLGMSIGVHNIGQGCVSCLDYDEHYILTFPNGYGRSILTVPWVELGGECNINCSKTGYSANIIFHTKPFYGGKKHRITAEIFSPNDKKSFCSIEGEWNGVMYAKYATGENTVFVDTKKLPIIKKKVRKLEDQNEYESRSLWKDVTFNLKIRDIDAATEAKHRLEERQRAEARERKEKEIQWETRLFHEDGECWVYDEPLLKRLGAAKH
UniProt Q32P28: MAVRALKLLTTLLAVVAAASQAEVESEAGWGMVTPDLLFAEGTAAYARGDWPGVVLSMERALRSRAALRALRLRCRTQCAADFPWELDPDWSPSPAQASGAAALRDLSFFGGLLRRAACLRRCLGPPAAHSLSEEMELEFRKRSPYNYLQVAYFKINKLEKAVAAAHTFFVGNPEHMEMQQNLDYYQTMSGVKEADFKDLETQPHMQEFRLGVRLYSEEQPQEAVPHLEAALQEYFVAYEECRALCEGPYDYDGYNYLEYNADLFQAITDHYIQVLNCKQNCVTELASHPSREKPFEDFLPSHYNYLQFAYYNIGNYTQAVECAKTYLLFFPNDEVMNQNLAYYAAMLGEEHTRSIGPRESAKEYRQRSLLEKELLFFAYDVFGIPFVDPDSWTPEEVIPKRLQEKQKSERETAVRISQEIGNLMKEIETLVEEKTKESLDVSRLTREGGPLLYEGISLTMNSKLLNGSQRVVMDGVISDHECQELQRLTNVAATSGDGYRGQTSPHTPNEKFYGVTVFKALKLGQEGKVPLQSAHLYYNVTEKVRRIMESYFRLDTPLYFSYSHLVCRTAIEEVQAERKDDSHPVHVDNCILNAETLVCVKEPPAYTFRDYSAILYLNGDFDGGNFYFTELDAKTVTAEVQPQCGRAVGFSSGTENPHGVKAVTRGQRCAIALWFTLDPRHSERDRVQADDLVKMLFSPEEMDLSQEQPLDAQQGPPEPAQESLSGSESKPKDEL
UniProt Q9H857: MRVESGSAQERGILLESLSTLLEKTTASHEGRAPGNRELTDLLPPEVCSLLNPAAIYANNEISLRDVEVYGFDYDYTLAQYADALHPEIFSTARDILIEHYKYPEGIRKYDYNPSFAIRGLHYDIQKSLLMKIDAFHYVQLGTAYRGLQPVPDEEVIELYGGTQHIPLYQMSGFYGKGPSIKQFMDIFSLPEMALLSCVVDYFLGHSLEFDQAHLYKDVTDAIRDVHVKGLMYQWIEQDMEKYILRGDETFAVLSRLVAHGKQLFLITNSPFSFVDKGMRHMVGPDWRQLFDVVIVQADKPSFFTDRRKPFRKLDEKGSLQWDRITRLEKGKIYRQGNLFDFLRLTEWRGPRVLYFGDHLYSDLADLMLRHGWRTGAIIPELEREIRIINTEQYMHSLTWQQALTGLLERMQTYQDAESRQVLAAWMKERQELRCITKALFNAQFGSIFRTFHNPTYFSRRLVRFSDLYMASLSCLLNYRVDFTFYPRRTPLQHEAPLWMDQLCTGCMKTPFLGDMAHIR
UniProt Q9H6K4: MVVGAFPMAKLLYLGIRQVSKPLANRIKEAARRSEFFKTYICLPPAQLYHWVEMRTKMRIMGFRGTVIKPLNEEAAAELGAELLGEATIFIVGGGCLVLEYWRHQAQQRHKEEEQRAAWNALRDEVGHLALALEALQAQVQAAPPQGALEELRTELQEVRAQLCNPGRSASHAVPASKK
UniProt P50583: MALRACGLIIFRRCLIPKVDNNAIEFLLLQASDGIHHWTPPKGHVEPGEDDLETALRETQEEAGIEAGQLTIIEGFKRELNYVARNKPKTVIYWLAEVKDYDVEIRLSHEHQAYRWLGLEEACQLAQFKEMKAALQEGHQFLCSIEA
UniProt P55809: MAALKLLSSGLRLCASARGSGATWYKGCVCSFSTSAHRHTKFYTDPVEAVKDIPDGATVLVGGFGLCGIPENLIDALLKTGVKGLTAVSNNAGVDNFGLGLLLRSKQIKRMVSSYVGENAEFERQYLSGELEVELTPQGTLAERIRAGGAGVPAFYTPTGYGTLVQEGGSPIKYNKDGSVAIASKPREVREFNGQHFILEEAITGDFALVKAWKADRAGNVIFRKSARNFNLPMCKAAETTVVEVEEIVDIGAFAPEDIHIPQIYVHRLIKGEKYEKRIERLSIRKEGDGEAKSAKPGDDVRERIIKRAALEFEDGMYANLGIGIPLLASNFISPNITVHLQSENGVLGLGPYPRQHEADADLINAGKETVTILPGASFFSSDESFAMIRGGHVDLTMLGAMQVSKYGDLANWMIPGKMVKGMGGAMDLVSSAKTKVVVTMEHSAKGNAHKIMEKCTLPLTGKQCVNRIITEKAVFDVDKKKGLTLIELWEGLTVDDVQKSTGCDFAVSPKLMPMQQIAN
UniProt Q01968: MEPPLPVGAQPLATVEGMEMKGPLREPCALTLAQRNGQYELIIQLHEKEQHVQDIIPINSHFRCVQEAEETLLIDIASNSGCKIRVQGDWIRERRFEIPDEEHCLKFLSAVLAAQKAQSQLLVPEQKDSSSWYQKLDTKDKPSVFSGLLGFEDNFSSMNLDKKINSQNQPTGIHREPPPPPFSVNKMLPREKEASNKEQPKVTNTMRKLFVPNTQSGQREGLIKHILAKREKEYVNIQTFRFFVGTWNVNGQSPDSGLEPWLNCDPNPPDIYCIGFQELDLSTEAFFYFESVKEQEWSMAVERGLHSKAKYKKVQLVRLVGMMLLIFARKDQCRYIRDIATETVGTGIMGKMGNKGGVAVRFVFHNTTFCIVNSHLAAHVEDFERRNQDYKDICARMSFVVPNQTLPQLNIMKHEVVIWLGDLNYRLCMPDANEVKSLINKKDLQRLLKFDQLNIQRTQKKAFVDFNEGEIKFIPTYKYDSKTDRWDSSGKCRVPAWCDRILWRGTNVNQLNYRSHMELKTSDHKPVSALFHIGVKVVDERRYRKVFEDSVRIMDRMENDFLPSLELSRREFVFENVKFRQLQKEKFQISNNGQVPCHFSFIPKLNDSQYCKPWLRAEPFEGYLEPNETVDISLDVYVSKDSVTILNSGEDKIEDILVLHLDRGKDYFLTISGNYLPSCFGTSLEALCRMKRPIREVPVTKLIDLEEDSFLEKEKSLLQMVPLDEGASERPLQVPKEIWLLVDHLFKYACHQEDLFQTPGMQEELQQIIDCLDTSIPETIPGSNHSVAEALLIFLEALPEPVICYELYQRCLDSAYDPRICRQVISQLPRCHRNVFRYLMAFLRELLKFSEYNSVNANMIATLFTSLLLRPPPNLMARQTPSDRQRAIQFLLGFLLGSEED
UniProt Q9H8K7: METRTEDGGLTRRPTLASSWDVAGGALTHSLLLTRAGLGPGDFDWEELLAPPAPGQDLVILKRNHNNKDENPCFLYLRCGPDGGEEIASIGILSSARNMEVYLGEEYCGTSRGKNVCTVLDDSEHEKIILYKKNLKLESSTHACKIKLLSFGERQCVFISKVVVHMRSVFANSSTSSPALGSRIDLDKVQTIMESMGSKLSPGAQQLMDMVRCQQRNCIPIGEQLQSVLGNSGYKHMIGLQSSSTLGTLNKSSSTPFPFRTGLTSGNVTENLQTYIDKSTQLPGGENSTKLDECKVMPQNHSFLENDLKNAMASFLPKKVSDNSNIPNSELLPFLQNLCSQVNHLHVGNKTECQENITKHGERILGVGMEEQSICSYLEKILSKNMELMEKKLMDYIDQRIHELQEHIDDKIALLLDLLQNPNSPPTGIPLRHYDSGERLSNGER
UniProt P00480: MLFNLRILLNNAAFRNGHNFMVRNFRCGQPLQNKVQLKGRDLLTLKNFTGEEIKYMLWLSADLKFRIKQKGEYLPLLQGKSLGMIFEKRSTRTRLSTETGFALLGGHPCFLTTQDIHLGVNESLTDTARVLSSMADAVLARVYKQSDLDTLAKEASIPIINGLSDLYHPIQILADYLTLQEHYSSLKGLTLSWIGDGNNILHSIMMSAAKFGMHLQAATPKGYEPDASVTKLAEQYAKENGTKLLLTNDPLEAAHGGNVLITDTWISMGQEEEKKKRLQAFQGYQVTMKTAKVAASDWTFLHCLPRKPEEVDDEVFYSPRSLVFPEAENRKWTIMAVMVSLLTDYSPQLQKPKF
UniProt Q96HP4: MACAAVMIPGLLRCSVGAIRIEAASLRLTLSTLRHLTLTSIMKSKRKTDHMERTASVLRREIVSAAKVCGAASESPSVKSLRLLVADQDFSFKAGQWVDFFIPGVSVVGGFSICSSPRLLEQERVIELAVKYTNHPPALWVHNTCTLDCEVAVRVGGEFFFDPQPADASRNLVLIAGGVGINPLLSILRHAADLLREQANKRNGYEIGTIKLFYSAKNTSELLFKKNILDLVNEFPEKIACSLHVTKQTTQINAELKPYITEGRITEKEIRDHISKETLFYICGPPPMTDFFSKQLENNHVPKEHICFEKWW

Assays:
Experiment in all cases: log2 fold change, soluble protein after heating vs DMSO (PISA); higher = thermal stabilisation; K562 cells, 10 uM, 30 min; active = over 0.2 and 3.5 SD of the protein, either way, in both replicates (recomputed)
[1] = compound: C1COCCN1CCN2C3=CC=CC=C3N=C2NC(=O)C4=CC(=CC=C4)[N+](=O)[O-] [IRAK-1-4 Inhibitor I]
Summary of the method: (§1)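 Soluble protein was quantified by TMTpro 16plex LC-MS/MS after channel sums were equalised. It was obtained as the supernatant after 21,000xg for 90 min from pooled aliquots of K562 cells (2×10^6 cells/mL, 10 μM compound, 30 min) heated for 3 min across 48°C-58°C and extracted in PBS with 0.5% NP-40 at 4°C. Thermal stability values are relative to control samples and come from duplicates. They are given as log2 fold changes.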

[2] = compound: C=CC(=O)N1CCC[C@@H](n2nc(-c3ccc(Oc4ccccc4)cc3)c3c(N)ncnc32)C1 [ibrutinib]
Summary of the method: as §1

[3] = compound: CC(=O)c1cnc2ccc(-c3cc(Cl)c(O)c(Cl)c3)nc2c1N[C@H]1CC[C@H](CN(C)C)CC1
Summary of the method: as §1

[4] = compound: CC(C)(C)Cn1c(N)nc2ccc(-c3[nH]c(C(C)(C)C)nc3-c3ccc(F)cc3)nc21 [ralimetinib]
Summary of the method: as §1

[5] = compound: CC(C)(O)CC(=O)NCCn1ccc2ncnc(Nc3ccc(Oc4cccc(C(F)(F)F)c4)c(Cl)c3)c21
Summary of the method: as §1

[6] = compound: CC(C)C1=C2N=C(C=C(N2N=C1)NCC3=CC=CC=C3)NCCCCCCN
Summary of the method: as §1

[7] = compound: CC(C)C[C@@H](C=O)NC(=O)[C@H](CC(C)C)NC(=O)[C@H](CC(C)C)NC(=O)OCc1ccccc1
Summary of the method: as §1

[8] = compound: CC(C)N(C[C@H]1O[C@@H](n2cnc3c(N)ncnc32)[C@H](O)[C@@H]1O)[C@H]1C[C@@H](CCc2nc3cc(C(C)(C)C)ccc3[nH]2)C1 [pinometostat]
Summary of the method: as §1

[9] = compound: CC1=C(C(CC(=O)N1)C2=CC=C(C=C2)C(F)(F)F)C(=O)NC3=C(C=C4C(=C3)C=NN4)F
Summary of the method: as §1

[10] = compound: CC1=C(C2=C(C=C1)C(=O)C3=CC=CC=C3N2CCCN)C
Summary of the method: as §1

[11] = compound: CC1=C(C=C(C=C1)NC(=O)C2=CC(=CC=C2)C(C)(C)C#N)NC3=CC4=C(C=C3)N=CN(C4=O)C
Summary of the method: as §1

[12] = compound: CC1=C(C=C(C=C1)NC(=O)C2=CC(=CC=C2)N(C)C)NC(=O)C3=CC=C(C=C3)O
Summary of the method: as §1

[13] = compound: CC1=CC=C(C=C1)SC2=C3C=C(SC3=CN=C2)C(=O)N
Summary of the method: as §1

[14] = compound: CC1=NC(=CC=C1)C2=C(N=C(N2)C(C)(C)C)C3=CC4=NC=CN=C4C=C3
Summary of the method: as §1

[15] = compound: CCCCN(Cc1ccc(C(=O)NO)cc1)C(=O)Nc1ccccc1 [Nexturastat A]
Summary of the method: as §1

[16] = compound: CCCS(=O)(=O)Nc1ccc(F)c(C(=O)c2c[nH]c3ncc(-c4ccc(Cl)cc4)cc23)c1F [vemurafenib]
Summary of the method: as §1

[17] = compound: CCCS(=O)(=O)Nc1ccc(F)c(C(=O)c2c[nH]c3ncc(Cl)cc23)c1F
Summary of the method: as §1

[18] = compound: CCCc1cc(C)[nH]c(=O)c1CNC(=O)c1cc(-c2ccnc(N3CCN(C)CC3)c2)cc2c1cnn2C(C)C
Summary of the method: as §1

[19] = compound: CCN(CC)Cc1ccc2cc(COC(=O)Nc3ccc(C(=O)NO)cc3)ccc2c1 [givinostat]
Summary of the method: as §1

[20] = compound: CCN(CCCOc1ccc2c(Nc3cc(CC(=O)Nc4cccc(F)c4)[nH]n3)ncnc2c1)CCOP(=O)(O)O [barasertib]
Summary of the method: as §1

Measured: log2 fold change

NUCB1 (UniProt Q02818)
inactive: [1] 0.039 | [2] -0.016 | [3] 0.031 | [4] -0.012 | [5] 0.012 | [6] 0.068 | [7] -0.019 | [8] -0.03 | [9] 0.01 | [10] -0.071 | [11] -0.016 | [12] 0.01 | [13] 0.009 | [14] 0.005 | [15] -0.044 | [16] -0.011 | [17] -0.025 | [18] -0.023 | [19] -0.022 | [20] -0.001

NUDT15 (UniProt Q9NV35)
inactive: [1] 0.016 | [2] -0.001 | [3] -0.012 | [4] 0.024 | [5] -0.026 | [6] 0.018 | [7] -0.018 | [8] 0.008 | [9] -0.021 | [10] 0.036 | [11] 0.025 | [12] -0.03 | [13] 0.004 | [14] -0.057 | [15] -0.034 | [16] 0.099 | [17] 0.072 | [18] -0.227 | [19] 0.013 | [20] -0.002

NUDC (UniProt Q9Y266)
inactive: [1] 0.053 | [2] -0.017 | [3] -0.007 | [4] -0.029 | [5] -0.031 | [6] -0.019 | [7] 0.011 | [8] -0.007 | [9] 0 | [10] 0.012 | [11] 0.001 | [12] 0.014 | [13] -0.008 | [14] 0.034 | [15] -0.088 | [16] 0.016 | [17] 0.027 | [18] -0.048 | [19] -0.006 | [20] 0.028

NUBPL (UniProt Q8TB37)
inactive: [1] 0.064 | [2] 0.073 | [3] -0.018 | [4] -0.033 | [5] 0 | [6] -0.001 | [7] -0.134 | [8] -0.056 | [9] 0.073 | [10] 0.078 | [11] -0.037 | [12] -0.039 | [13] 0.004 | [14] 0.006 | [15] 0.035 | [16] -0.055 | [17] -0.031 | [18] -0.039 | [19] -0.008 | [20] 0.024

OSBPL9 (UniProt Q96SU4)
inactive: [1] -0.045 | [2] 0.002 | [3] -0.08 | [4] 0.107 | [5] -0.012 | [6] -0.21 | [7] 0.191 | [8] 0.357 | [9] 0.047 | [10] -0.018 | [11] 0.025 | [12] 0.302 | [13] 0.063 | [14] -0.159 | [15] 0.224 | [16] 0.046 | [17] 0.077 | [18] 0.081 | [19] 0.026 | [20] 0.01

P3H1 (UniProt Q32P28)
inactive: [1] -0.058 | [2] -0.029 | [3] 0.062 | [4] 0.034 | [5] 0.049 | [6] -0.058 | [7] 0.063 | [8] 0.048 | [9] -0.004 | [10] 0 | [11] 0.02 | [12] -0.011 | [13] -0.043 | [14] -0.083 | [15] 0.056 | [16] -0.063 | [17] -0.013 | [18] 0.034 | [19] 0 | [20] -0.01

NT5DC2 isoform 2 (UniProt Q9H857)
inactive: [1] 0.003 | [2] 0.034 | [3] -0.014 | [4] -0.009 | [5] -0.022 | [6] 0.081 | [7] -0.045 | [8] -0.036 | [9] -0.022 | [10] 0.006 | [11] 0.016 | [12] -0.001 | [13] -0.018 | [14] 0.03 | [15] -0.013 | [16] 0.035 | [17] 0.036 | [18] -0.035 | [19] -0.009 | [20] -0.011

OPA3 (UniProt Q9H6K4)
inactive: [1] -0.014 | [2] -0.045 | [3] 0.022 | [4] -0.09 | [5] 0.017 | [6] -0.082 | [7] 0.089 | [8] 0.032 | [9] 0.164 | [10] -0.076 | [11] -0.06 | [12] 0.084 | [13] 0.088 | [14] 0.088 | [15] -0.074 | [16] -0.106 | [17] -0.062 | [18] 0.019 | [19] 0.093 | [20] -0.044

NUDT2 (UniProt P50583)
inactive: [1] 0.051 | [2] 0.052 | [3] -0.089 | [4] 0.076 | [5] -0.03 | [6] -0.159 | [7] -0.017 | [8] -0.126 | [9] -0.129 | [10] -0.102 | [11] 0.008 | [12] -0.003 | [13] 0.019 | [14] 0 | [15] 0.032 | [16] 0.02 | [17] 0.048 | [18] 0.01 | [19] 0.17 | [20] 0.012

NUDT5 (UniProt Q9UKK9)
inactive: [1] 0.029 | [2] 0.004 | [3] 0.012 | [4] -0.003 | [5] -0.015 | [6] 0.116 | [7] -0.043 | [8] -0.031 | [9] 0.023 | [10] -0.009 | [11] 0.02 | [12] 0.019 | [13] 0.026 | [14] 0.048 | [15] -0.089 | [16] -0.013 | [17] -0.005 | [18] 0.008 | [19] -0.002 | [20] -0.012

OXCT1 (UniProt P55809)
inactive: [1] 0.023 | [2] -0.008 | [3] -0.004 | [4] -0.006 | [5] -0.006 | [6] 0.016 | [7] -0.009 | [8] -0.021 | [9] -0.022 | [10] -0.003 | [11] 0.06 | [12] -0.001 | [13] -0.007 | [14] 0.015 | [15] -0.078 | [16] 0.038 | [17] 0.004 | [18] 0.006 | [19] 0.019 | [20] -0.001

Retrieved one by one from above (two):
P3H1 (UniProt Q32P28)
inactive: [1] -0.058 | [2] -0.029 | [3] 0.062 | [4] 0.034 | [5] 0.049 | [6] -0.058 | [7] 0.063 | [8] 0.048 | [9] -0.004 | [10] 0 | [11] 0.02 | [12] -0.011 | [13] -0.043 | [14] -0.083 | [15] 0.056 | [16] -0.063 | [17] -0.013 | [18] 0.034 | [19] 0 | [20] -0.01

OPA3 (UniProt Q9H6K4)
inactive: [1] -0.014 | [2] -0.045 | [3] 0.022 | [4] -0.09 | [5] 0.017 | [6] -0.082 | [7] 0.089 | [8] 0.032 | [9] 0.164 | [10] -0.076 | [11] -0.06 | [12] 0.084 | [13] 0.088 | [14] 0.088 | [15] -0.074 | [16] -0.106 | [17] -0.062 | [18] 0.019 | [19] 0.093 | [20] -0.044

Next part

OCRL (UniProt Q01968)
inactive: [1] -0.095 | [2] -0.068 | [3] -0.045 | [4] 0.069 | [5] 0.034 | [6] 0.056 | [7] -0.007 | [8] 0.024 | [9] 0.022 | [10] 0.026 | [11] 0.079 | [12] -0.056 | [13] -0.031 | [14] 0.031 | [15] 0.012 | [16] -0.085 | [17] 0.016 | [18] 0.028 | [19] 0.16 | [20] 0.062

PAAT (UniProt Q9H8K7)
inactive: [1] 0.058 | [2] -0.092 | [3] 0.063 | [4] -0.001 | [5] 0.07 | [6] 0.041 | [7] 0.032 | [8] -0.074 | [9] -0.108 | [10] 0.004 | [11] -0.071 | [12] -0.022 | [13] -0.011 | [14] 0.008 | [15] -0.002 | [16] -0.007 | [17] 0.061 | [18] -0.351 | [19] -0.043 | [20] 0.111

OTC (UniProt P00480)
inactive: [1] -0.032 | [2] -0.052 | [3] -0.166 | [4] -0.364 | [5] 0.017 | [6] -0.142 | [7] 0.117 | [8] -0.016 | [9] 0.011 | [10] 0.063 | [11] -0.092 | [12] -0.006 | [13] -0.229 | [14] -0.09 | [15] -0.054 | [16] -0.257 | [17] -0.344 | [18] -1.78 | [19] -0.032 | [20] 0.058

OXNAD1 (UniProt Q96HP4)
inactive: [1] -0.009 | [2] 0.072 | [3] 0.022 | [4] -0.046 | [5] -0.005 | [6] 0.078 | [7] -0.03 | [8] 0.002 | [9] 0.002 | [10] 0.075 | [11] 0.011 | [12] 0.008 | [13] -0.024 | [14] 0.022 | [15] -0.065 | [16] 0.024 | [17] -0.029 | [18] -0.041 | [19] -0.001 | [20] 0.01
